Experimental findings from patent publication US20250340649A1 (RUTGERS THE STATE UNIVERSITY OF NEW JERSEY, published 2025) are described below.

By UniProt entry, the sequences of proteins in these tests, tags left out. Where a name states a change or a piece, a line headed by the entry shows the natural chain unless it says otherwise. Chains listed by the source or under a name are the forms on record and can include a tag or linker.
Biotinylated Human Fc gamma RIIIB/CD16b (NA1) Protein, His, Avitag (Acrobiosystems CDB-H82E4) (O75015, form named): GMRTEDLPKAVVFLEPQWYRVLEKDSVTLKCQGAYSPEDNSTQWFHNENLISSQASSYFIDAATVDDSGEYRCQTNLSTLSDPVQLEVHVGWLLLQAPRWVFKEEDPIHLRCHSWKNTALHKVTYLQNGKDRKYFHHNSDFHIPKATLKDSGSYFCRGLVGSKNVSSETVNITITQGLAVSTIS

The target of the assay is Biotinylated Human Fc gamma RIIIB/CD16b (NA1) Protein, His, Avitag (Acrobiosystems CDB-H82E4) (human) (UniProt O75015). Kind of assay: BLI (Octet), biotinylated antigen on streptavidin sensor.

No constants are given. Whether binding was seen depends on the method and setting. Some results given as binding are weak or reduced against the parent protein; the word gives no strength.

B1: E5C1 BiKE (BiKE: HER2/CD16a) (bispecific antibody)
chain: QVQLQESGGGLVQAGGSLRLDCAASGRTLSSYVVGWFRQAPGKEREVVAAIGWSRTSTFYTDSVKGRFTISRDNTENTVYLQMNSLKPGDTAVYYCAADSSPRRWDRESDFGSWGQGTQVTVSSPSGQAGAAASESLFVSNHASQVQLQESGGGLVQAGGSLRLSCAASGRTFRLYRMGWFRQAPGKEREFVGSIKMIDGSTLYGDPVKGRFTISRDNTKFMAYLQMNSLKPEDTAVYYCASVSRVTGSYDSWGQGTQVTVSSWELQGSEQKLISEEDLHHHHHHHHHHHH
notes: Monomer by LC-MS; also called BIKE: CD16a/HER2
With B1, the binding result is on record as “binds”.
